Experimental findings from paper PMC4265741 are described below.

Protein sequences, listed by entry. Tags and fused reporters are not part of them.
UniProt Q08509: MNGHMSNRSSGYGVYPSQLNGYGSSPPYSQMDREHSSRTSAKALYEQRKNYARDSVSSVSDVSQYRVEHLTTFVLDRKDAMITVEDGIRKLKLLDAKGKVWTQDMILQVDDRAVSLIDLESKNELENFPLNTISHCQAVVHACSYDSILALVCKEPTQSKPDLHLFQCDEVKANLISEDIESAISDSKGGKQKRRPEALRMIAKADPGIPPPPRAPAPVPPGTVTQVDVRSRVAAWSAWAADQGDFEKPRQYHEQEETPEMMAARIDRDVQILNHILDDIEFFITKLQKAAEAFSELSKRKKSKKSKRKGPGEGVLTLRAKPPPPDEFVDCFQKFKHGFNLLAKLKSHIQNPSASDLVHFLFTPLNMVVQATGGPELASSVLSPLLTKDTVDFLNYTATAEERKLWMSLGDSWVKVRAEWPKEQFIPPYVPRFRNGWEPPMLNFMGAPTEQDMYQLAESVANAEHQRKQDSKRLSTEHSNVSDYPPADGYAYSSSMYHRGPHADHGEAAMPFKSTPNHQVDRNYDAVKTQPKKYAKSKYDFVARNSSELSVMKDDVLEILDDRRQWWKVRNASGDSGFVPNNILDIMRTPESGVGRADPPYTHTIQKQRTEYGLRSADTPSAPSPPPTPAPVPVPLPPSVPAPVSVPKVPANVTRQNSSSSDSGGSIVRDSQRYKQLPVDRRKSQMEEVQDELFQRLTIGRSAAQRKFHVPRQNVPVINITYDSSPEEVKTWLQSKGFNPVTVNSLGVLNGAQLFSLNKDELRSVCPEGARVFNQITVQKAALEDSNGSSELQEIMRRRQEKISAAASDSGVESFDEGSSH
UniProt Q12929: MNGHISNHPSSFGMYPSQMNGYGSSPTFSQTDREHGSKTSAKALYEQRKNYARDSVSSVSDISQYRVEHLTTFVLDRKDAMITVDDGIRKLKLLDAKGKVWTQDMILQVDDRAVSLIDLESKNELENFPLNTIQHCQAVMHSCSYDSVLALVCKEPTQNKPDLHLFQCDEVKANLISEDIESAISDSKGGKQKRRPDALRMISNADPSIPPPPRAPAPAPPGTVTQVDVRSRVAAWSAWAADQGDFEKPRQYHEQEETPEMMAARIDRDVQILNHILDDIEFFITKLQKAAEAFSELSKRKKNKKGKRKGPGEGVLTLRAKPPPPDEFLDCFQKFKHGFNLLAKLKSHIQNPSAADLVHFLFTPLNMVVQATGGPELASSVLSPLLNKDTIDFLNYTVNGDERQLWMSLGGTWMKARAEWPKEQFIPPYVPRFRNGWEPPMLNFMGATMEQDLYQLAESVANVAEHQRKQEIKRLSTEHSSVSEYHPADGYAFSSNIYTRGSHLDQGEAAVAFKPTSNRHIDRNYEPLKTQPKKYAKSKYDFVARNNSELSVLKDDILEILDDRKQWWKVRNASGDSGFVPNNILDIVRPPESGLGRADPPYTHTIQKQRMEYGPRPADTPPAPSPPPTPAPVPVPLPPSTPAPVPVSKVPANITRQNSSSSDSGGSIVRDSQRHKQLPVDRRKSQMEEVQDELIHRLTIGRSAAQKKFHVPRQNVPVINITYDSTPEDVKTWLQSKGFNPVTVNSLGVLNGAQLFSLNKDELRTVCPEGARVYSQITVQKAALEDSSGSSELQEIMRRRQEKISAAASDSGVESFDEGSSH

Results are given in words; binding and its absence hold for the method and conditions named. For some of these results: In cells and extracts the contact can be indirect. Some results given as binding are weak or reduced against the parent protein; the word gives no strength.

In assay [1] the target is FAK K1001A/K1003A (UniProt Q00944). The assay is described as follows: co-IP; 1 mg SCC cell lysate (FAK WT, FAK K1001A/K1003A or FAK-/-; RIPA or NP40 buffer) with 2 ug antibody or 10 ul agarose-conjugated antibody at 4 C overnight; beads washed three times in lysis buffer and once in 0.6 M LiCl; western blot; for the LC3B IP FAK-/- cells with Eps8 or non-targeting shRNA. (A western blot detects proteins with antibodies after separation by electrophoresis.)

Assay [2] has as its target FAK WT (wild-type focal adhesion kinase re-expressed in FAK-/- SCC cells) (UniProt Q00944). Described as above.
Assay [3] concerns the target T1, FAK peptide b (amino acids 1029-1053) (UniProt Q00944).
T1 sequence (peptide): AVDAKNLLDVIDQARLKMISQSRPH
In words: peptide or protein array; overlapping 25-mer FAK peptides spotted onto nitrocellulose, incubated with recombinant Eps8, washed, probed with anti-Eps8 antibody; alanine scan with one amino acid mutated at a time; both purified.

Assay [4] concerns the target T2, FAK peptide a (amino acids 986-1010) (UniProt Q00944).
T2 sequence (peptide): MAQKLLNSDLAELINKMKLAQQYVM
The assay is described as above.

For “Eps8, 97-kDa isoform (from UniProt Q08509 1-821)”, the binding entry in assay [1] and in assay [2] was “binds” each time.
On to “recombinant Eps8 (Abnova) (from UniProt Q12929 1-822)”, for which the binding entry in assay [3] and in assay [4] was “binds” throughout.
